No constants are given. Whether binding was seen depends on the method and setting. In cells and extracts the contact can be indirect. Some entries that bind do so weakly or less than the wild type.
Molecular target: Bcl-2 (human (endogenous in OCI-ly8)) (UniProt P10415)
Assay: co-IP; as a1, the sample of OCI-ly8 cells treated with 2 uM BM-1197 for 6 h; IP with anti-Bcl-2 antibody, western blot

Sequences of proteins named here, by UniProt entry; tags and fusion partners are left off.
UniProt P10415: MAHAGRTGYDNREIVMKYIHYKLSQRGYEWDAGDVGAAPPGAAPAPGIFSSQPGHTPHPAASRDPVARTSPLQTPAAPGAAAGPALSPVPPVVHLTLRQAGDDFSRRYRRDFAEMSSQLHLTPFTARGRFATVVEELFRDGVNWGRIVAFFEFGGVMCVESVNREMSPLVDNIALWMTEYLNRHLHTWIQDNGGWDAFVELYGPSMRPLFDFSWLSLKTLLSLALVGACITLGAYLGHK
UniProt Q07812: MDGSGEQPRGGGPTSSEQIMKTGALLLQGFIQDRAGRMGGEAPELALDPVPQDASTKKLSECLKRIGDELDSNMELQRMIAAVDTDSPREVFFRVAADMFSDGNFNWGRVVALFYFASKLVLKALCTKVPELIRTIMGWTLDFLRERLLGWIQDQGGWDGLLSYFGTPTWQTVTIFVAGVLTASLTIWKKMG

Bax (from UniProt Q07812 1-192)
binding: binds weakly
